According to PubChem BioAssay AID328 (DTP/NCI, 2004):
The list does not hold the whole screen: it is rich in T/C values a quarter to a half above the control, in often repeated tests (any T/C) and in doses without a T/C. Other doses and runs of a compound stand elsewhere. T/C: endpoint of the treated group in % of that of the vehicle group. Some entries give survivors of the animals treated and no T/C: the source holds a T/C of zero for them, seemingly a mark for toxic or unscored doses. Some doses without a T/C left all or most animals alive at the check, yet need not have been tolerated: the source hardly ever lists a survival T/C far under the control, and the zero likely stands for such cases as well. Counts of survivors are from the toxicity check (mostly the fifth day) where no day follows; animals may have died later. Schedules are NCI's codes, taken here to give the interval after Q, in days (D) or hours (H), and the number of doses after X. Where survival is the endpoint, the PubChem record calls one and a half times the control and up active, and a quarter to a half above the control has no call in these data; cut-offs in other NCI protocols can differ. Some doses were run more than once; the results are listed from low to high.

System: BDF1 mice, P388 leukemia ip, median survival T/C
Assay: NCI In Vivo Anticancer Drug Screen. Data for tumor model P388 Leukemia (intraperitoneal) in B6D2F1 (BDF1) mice
Conditions: T/C endpoint: median survival time, higher T/C = longer survival
Method in brief: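 Vehicle-dosed animals serve as the reference; survival of compound-dosed, tumour-implanted mice is divided by it.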

[1] = dose: 200.0 mg/kg/injection, schedule: Q01DX009 (ip), vehicle: Klucel (hydroxypropylcellulose) (HPC)
[2] = dose: 2.0 mg/kg/injection, schedule: Q01DX009 (ip), vehicle: saline with Tween-80

COC(=O)C[C@](O)(CCCC(C)(C)O)C(=O)O[C@@H]1C(OC)=C[C@]23CCCN2CCc2cc4c(cc2[C@H]13)OCO4
T/C (dose: 0.25 mg/kg/injection, schedule: Q03HX008 (ip), vehicle: acid diluted with saline): 140 % of control | T/C (dose: 0.5 mg/kg/injection, schedule: Q01DX009 (sc), vehicle: acid diluted with saline): 125 % of control | T/C (dose: 0.5 mg/kg/injection, schedule: Q03HX008 (ip), vehicle: acid diluted with saline): 140 % of control | T/C (dose: 0.72 mg/kg/injection, schedule: Q04DX003 (ip), vehicle: acid diluted with saline): 127 and 128 % of control | T/C (dose: 1.0 mg/kg/injection, schedule: Q01DX009 (sc), vehicle: saline): 140 % of control | T/C (dose: 1.0 mg/kg/injection, schedule: Q04DX003 (ip), vehicle: acid diluted with saline): 130 % of control | T/C (dose: 1.0 mg/kg/injection, schedule: Q04DX003 (ip), vehicle: saline): 147 % of control | T/C (dose: 1.2 mg/kg/injection, schedule: Q04DX003 (ip), vehicle: acid diluted with saline): 142 and 147 % of control | survivor count (dose: 2.0 mg/kg/injection, schedule: Q01DX009 (ip), vehicle: water): 6 of 6 | T/C (dose: 2.0 mg/kg/injection, schedule: Q01DX009 (oral), vehicle: acid diluted with saline): 140 % of control | survivor count (dose: 2.0 mg/kg/injection, schedule: Q01DX009 (oral), vehicle: saline): 1 of 10 | survivor count (dose: 2.0 mg/kg/injection, schedule: Q01DX010 (ip), vehicle: saline): 6 of 6 | survivor count (dose: 2.0 mg/kg/injection, schedule: Q03HX008 (ip), vehicle: acid diluted with saline): 0 of 10 | survivor count (dose: 2.0 mg/kg/injection, schedule: Q03HX016 (ip), vehicle: acid diluted with saline): 2 of 10 | T/C (dose: 2.0 mg/kg/injection, schedule: Q08DX002 (ip), vehicle: acid diluted with saline): 130 % of control | survivor count (dose: 3.33 mg/kg/injection, schedule: Q04DX003 (ip), vehicle: acid diluted with saline): 7 of 8 | survivor count (dose: 4.0 mg/kg/injection, schedule: Q01DX009 (ip), vehicle: acid diluted with saline): 9 of 10 | survivor count (dose: 4.0 mg/kg/injection, schedule: Q01DX009 (ip), vehicle: saline): 7 of 10 | survivor count (dose: 4.0 mg/kg/injection, schedule: Q01DX009 (oral), vehicle: acid diluted with saline): 7 of 10 | survivor count (dose: 4.0 mg/kg/injection, schedule: Q01DX009 (oral), vehicle: saline): 1 of 10 | survivor count (dose: 4.0 mg/kg/injection, schedule: Q01DX009 (sc), vehicle: acid diluted with saline): 10 of 10 | survivor count (dose: 4.0 mg/kg/injection, schedule: Q01DX010 (ip), vehicle: saline): 1 of 6 | survivor count (dose: 4.0 mg/kg/injection, schedule: Q04DX003 (ip), vehicle: saline): 8 of 8 | T/C (dose: 4.0 mg/kg/injection, schedule: Q08DX002 (ip), vehicle: acid diluted with saline): 130 % of control | T/C (dose: 8.0 mg/kg/injection, schedule: Q01DX001 (ip), vehicle: acid diluted with saline): 130 % of control | survivor count (dose: 8.0 mg/kg/injection, schedule: Q01DX001 (iv), vehicle: acid diluted with saline): 4 of 10 | survivor count (dose: 8.0 mg/kg/injection, schedule: Q01DX001 (oral), vehicle: acid diluted with saline): 6 of 10 | survivor count (dose: 8.0 mg/kg/injection, schedule: Q01DX001 (sc), vehicle: acid diluted with saline): 6 of 10 | survivor count (dose: 8.0 mg/kg/injection, schedule: Q01DX009 (ip), vehicle: acid diluted with saline): 1 of 10 | survivor count (dose: 8.0 mg/kg/injection, schedule: Q01DX009 (ip), vehicle: saline): 0 of 10 | survivor count (dose: 8.0 mg/kg/injection, schedule: Q01DX009 (oral), vehicle: acid diluted with saline): 1 of 10 | survivor count (dose: 8.0 mg/kg/injection, schedule: Q01DX009 (oral), vehicle: saline): 0 of 10 | survivor count (dose: 8.0 mg/kg/injection, schedule: Q01DX009 (sc), vehicle: saline): 2 of 10 | survivor count (dose: 8.0 mg/kg/injection, schedule: Q04DX003 (ip), vehicle: acid diluted with saline): 8 of 10 | survivor count (dose: 8.0 mg/kg/injection, schedule: Q04DX003 (ip), vehicle: saline): 0 of 8 | survivor count (dose: 8.0 mg/kg/injection, schedule: Q08DX002 (ip), vehicle: acid diluted with saline): 5 of 10 | survivor count (dose: 11.0 mg/kg/injection, schedule: Q01DX009 (ip), vehicle: acetone): 0 of 6 | survivor count (dose: 16.0 mg/kg/injection, schedule: Q01DX001 (ip), vehicle: acid diluted with saline): 2 of 10 | survivor count (dose: 16.0 mg/kg/injection, schedule: Q01DX001 (iv), vehicle: acid diluted with saline): 0 of 10 | survivor count (dose: 16.0 mg/kg/injection, schedule: Q01DX001 (oral), vehicle: acid diluted with saline): 2 of 10 | survivor count (dose: 16.0 mg/kg/injection, schedule: Q01DX001 (sc), vehicle: acid diluted with saline): 0 of 10 | survivor count (dose: 16.0 mg/kg/injection, schedule: Q04DX003 (ip), vehicle: saline): 8 of 8 | survivor count (dose: 16.0 mg/kg/injection, schedule: Q08DX002 (ip), vehicle: acid diluted with saline): 2 of 10 | survivor count (dose: 18.0 mg/kg/injection, schedule: Q01DX009 (ip), vehicle: acetone): 0 of 6 | survivor count (dose: 27.0 mg/kg/injection, schedule: Q01DX009 (ip), vehicle: acetone): 0 of 6 | survivor count (dose: 32.0 mg/kg/injection, schedule: Q01DX001 (oral), vehicle: acid diluted with saline): 0 of 10 | survivor count (dose: 1000.0 micrograms/kg/injection, schedule: Q03HX024 (ip), vehicle: acid diluted with saline): 8 of 10 | survivor count (dose: 2000.0 micrograms/kg/injection, schedule: Q03HX024 (ip), vehicle: acid diluted with saline): 0 of 10

CC(=O)O[C@@]1(C)C(=O)OCC2=CCN3CC[C@@H](OC(=O)[C@H](C)[C@]1(C)OC(C)=O)[C@@H]23
survivor count (dose: 100.0 mg/kg/injection, schedule: Q01DX010 (ip), vehicle: carboxymethylcellulose (CMC)): 3 of 6

CC(C)OC(CCC#N)c1ccccc1 (stereo unspecified)
survivor count (dose: 400.0 mg/kg/injection, schedule: Q01DX009 (ip), vehicle: Klucel (hydroxypropylcellulose) (HPC)): 5 of 6

CCOC(=O)C1C2OC(=O)C(C(=O)C2CN(CCCl)CCCl)C1C1CC=C(CC2=CCC(C3C4C(=O)OC(C(CN(CCCl)CCCl)C4=O)C3C(=O)OCC)CC2)CC1 (stereo unspecified)
T/C (dose: 6.25 mg/kg/injection, schedule: Q01DX009 (ip), vehicle: Klucel (hydroxypropylcellulose) (HPC)): 132 % of control | survivor count [1]: 6 of 6

CSc1ccc(NC(=O)N(CCCl)N=O)cc1
T/C (dose: 25.0 mg/kg/injection, schedule: Q04DX003 (ip), vehicle: saline sonified): 127 and 131 % of control

CCCCCCCCCC(C)CC(=O)NCCCN(C)CCCCN(C)C (stereo unspecified)
survivor count (dose: 25.0 mg/kg/injection, schedule: Q01DX009 (ip), vehicle: Klucel (hydroxypropylcellulose) (HPC)): 0 of 6 | survivor count (dose: 50.0 mg/kg/injection, schedule: Q01DX009 (ip), vehicle: Klucel (hydroxypropylcellulose) (HPC)): 0 of 6 | survivor count (dose: 100.0 mg/kg/injection, schedule: Q01DX009 (ip), vehicle: Klucel (hydroxypropylcellulose) (HPC)): 0 of 6 | survivor count [1]: 0 of 6

CN=C(N)c1ccc(N=C(N)c2ccc(N=C(N)c3ccc(NC(=O)Nc4ccc(NC(=O)Nc5ccc(C(N)=Nc6ccc(C(N)=Nc7ccc(C(N)=NC)cc7)cc6)cc5)cc4)cc3)cc2)cc1
T/C (dose: 0.55 mg/kg/injection, schedule: Q01DX009 (ip), vehicle: saline with Tween-80): 126 % of control | T/C (dose: 0.85 mg/kg/injection, schedule: Q01DX009 (ip), vehicle: saline with Tween-80): 126 % of control | T/C (dose: 1.3 mg/kg/injection, schedule: Q01DX009 (ip), vehicle: saline with Tween-80): 133 and 134 % of control | T/C [2]: 140 % of control | T/C (dose: 3.0 mg/kg/injection, schedule: Q01DX009 (ip), vehicle: saline with Tween-80): 148 % of control | T/C (dose: 12.5 mg/kg/injection, schedule: Q01DX009 (ip), vehicle: saline with Tween-80): 140 % of control | T/C (dose: 37.0 mg/kg/injection, schedule: Q04DX003 (ip), vehicle: saline with Tween-80): 145 % of control | survivor count (dose: 50.0 mg/kg/injection, schedule: Q01DX009 (ip), vehicle: saline with Tween-80): 6 of 6

c1c2c(cc3c1OCO3)CC1CCCN1CC2 (stereo unspecified)
survivor count [2]: 10 of 10
